The source of these data is article PMC9814232, “Structural insights into the potency and selectivity of covalent pan-FGFR inhibitors” (Communications Chemistry, 2022).

Sequences of proteins named here, by UniProt entry; tags and fusion partners are left off. Residues count along the entry.
UniProt P08631, 247-526: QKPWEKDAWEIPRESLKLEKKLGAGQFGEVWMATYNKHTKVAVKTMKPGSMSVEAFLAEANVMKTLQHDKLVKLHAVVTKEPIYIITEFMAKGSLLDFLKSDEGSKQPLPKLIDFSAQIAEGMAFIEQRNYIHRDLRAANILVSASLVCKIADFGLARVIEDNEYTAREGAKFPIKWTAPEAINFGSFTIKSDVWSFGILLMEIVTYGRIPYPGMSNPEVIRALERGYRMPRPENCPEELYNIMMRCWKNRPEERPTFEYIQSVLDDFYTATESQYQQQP
UniProt P07947, whole entry: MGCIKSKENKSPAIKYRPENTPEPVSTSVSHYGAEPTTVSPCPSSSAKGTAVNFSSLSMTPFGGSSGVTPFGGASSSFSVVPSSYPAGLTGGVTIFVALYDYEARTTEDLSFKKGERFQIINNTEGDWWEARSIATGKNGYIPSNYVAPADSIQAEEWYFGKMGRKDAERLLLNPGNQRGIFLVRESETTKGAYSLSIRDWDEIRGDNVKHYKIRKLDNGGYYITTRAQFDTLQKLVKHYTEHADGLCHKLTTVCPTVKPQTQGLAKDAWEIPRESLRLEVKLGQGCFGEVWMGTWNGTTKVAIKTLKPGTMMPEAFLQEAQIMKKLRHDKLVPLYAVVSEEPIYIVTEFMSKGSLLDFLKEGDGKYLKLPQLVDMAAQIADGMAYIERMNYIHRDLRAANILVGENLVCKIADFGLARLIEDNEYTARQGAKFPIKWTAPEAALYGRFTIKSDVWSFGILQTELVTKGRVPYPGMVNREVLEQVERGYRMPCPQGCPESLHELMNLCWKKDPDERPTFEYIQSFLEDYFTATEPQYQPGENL

Each structure is given as a SMILES string. Where only a bound is given, the exact number is not on record here.

For experiment [1], the target named is T1, HCK (Homo sapiens, UniProt P08631).
T1 construct: human HCK (residues 247−526); 6×His (N, cleaved yes); made in house; host or cells: E. coli BL21 (DE3), co-expressed with YOPH
The experiment in a line: ADP-Glo kinase inhibition assay, HCK. Type of experiment: biochemical. The protocol:
(§1) FGFRs, SRC and HCK were prepared as previously described[31]–[33]. Briefly, the kinase domain of human FGFR1 (residues 456−765), FGFR2 (residues 453−770), FGFR3 (residues 450−758), FGFR4 (residues 445−753), chicken SRC (residues 251−533) and human HCK (residues 247−526) were respectively cloned into a modified pET28a expression vector with a N-terminal 6×His tag followed by a PreScission or TEV cleavage site. The mutants, FGFR1(V561M), FGFR2(V564F), FGFR3(V555M), FGFR4(V550L), FGFR4(C477A), SRC(C277A), were introduced by PCR using primers with the desired mutations. The primers were synthesized by Tsingke Biotechnolog Co., Ltd., and the sequences were listed in Supplementary Table 2. Then plasmid was transfected into E. coli BL21 (DE3) cells and co-expressed with YOPH to get the non-phosphorylated proteins. Cells were grown in LB at 37 °C and induced for 16 h with 0.5 mM IPTG at 18 °C. Cells were harvested by centrifugation for next purification. All steps of purification were performed at 4 °C. […]
(§2) The ADP-Glo^TM Kinase Assay Kit (Part No #V9101) was purchased from Promega. […] Finally, […] was measured on a multimode plate reader (Perkin-Elmer) after the addition of detection reagent for half an hour to one hour. IC50 values were determined using a three-parameter log [Inhibitor] versus response model in GraphPad Prism software.
Background: ADP-Glo turns the ADP formed in a reaction into a luminescent signal.

In experiment [2] the test system is advanced solid tumors. The note with it: pretreated patients with advanced solid tumors, phase 1 dose-escalation; cited from earlier work.
Experiment [3] concerns the target T2, SRC (Gallus gallus, UniProt P00523).
T2 construct: chicken SRC (residues 251−533); 6×His (N, cleaved yes); made in house; host or cells: E. coli BL21 (DE3), co-expressed with YOPH
The experiment in a line: ADP-Glo kinase inhibition assay, SRC. Type of experiment: biochemical, chicken. How it is done:
as §1, §2

The target in experiment [4] is T3, SRC(C277A) (Gallus gallus, UniProt P00523, C277A).
T3 construct: chicken SRC (residues 251−533); made in house; host or cells: E. coli BL21 (DE3), co-expressed with YOPH
The experiment in a line: ADP-Glo kinase inhibition assay, SRC(C277A). In kind it is biochemical, chicken. The protocol: as §1, §2

The target of experiment [5] is T4, YES (Homo sapiens, UniProt P07947).
T4 construct: purchased Carna 08-175
The experiment in a line: ADP-Glo kinase inhibition assay, YES. Type of experiment: biochemical. How it is done: as §1, §2

In general, IC50 refers to the concentration at which inhibition is half-maximal. Low values mean higher potency, high ones lower potency. Regarding `C=CC(=O)N1CC[C@H](n2nc(C#Cc3cc(OC)cc(OC)c3)c3c(N)ncnc32)C1` [TAS-120], the IC50 is greater than 5 µM in experiment [1], 1670 nM in experiment [3], greater than 5 µM in experiment [4] and 1630 nM in experiment [5]. Moreover, in experiment [2], the “activity in patients (in words)” value is listed as “promising activity”. Besides, the “potency against SRC(C277A) (in words)” value in experiment [4] (kinase assay) is “lost their potency”.
